Experimental data reported in patent publication US20190077867A1 (REYOUNG SUZHOU BIOLOGY SCIENCE AND TECHNOLOGY, published 2019).
Results are given in words; binding and its absence hold for the method and conditions named. Some results given as binding are weak or reduced against the parent protein; the word gives no strength.

Amino acid sequences for entries named in this document (tags omitted).
UniProt Q9EP73: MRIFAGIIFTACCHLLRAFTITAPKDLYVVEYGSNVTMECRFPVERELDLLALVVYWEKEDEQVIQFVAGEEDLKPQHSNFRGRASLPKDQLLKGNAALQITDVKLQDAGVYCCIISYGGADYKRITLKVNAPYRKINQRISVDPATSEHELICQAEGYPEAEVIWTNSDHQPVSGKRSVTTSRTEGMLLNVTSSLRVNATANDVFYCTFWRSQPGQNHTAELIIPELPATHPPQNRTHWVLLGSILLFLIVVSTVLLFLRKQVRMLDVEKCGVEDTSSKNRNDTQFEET

Assays:
[1] = target: M. fascicularis PD-L1 protein (M. fascicularis) (UniProt G7PSE7); assay: ELISA on coated protein, 0.5 µg/mL antibody, goat anti-human FAB-HRP
Mouse pdl1 (mouse) = Mouse pdl1 (mouse) (UniProt Q9EP73); assay: condition: 0.5 µg/mL (single antibody concentration, from paragraph 145; not printed on the sheet); ELISA, protein coated on the plate, antibody at 0.5 µg/mL, goat anti-human FAB-HRP, OD450

binding [1]: binds
binding (Mouse pdl1 (mouse)): no binding
B1: humanized antibody anti-PD-L1-1 (antibody, V domains shown)
VH: EVQLVQSGAEVKKPGASVKVSCKASGYTFTKYIIHWVRQAPGQGLEWMGWFYPGSGNIRYNEKIKGRVTMTRDTSTSTVYMELSSLRSEDTAVYYCARHGELGGGYFFDYWGQGTTVTVSS
VL: DIQLTQSPSFLSASVGDRVTITCRASSSVSNIHWYQQKPGKAPKPWIYATSNLASGVPSRFSGSGSGTEFTLTISSLQPEDFATYYCQQWSSNPLTFGQGTKLEIKR
notes: Expressed in CHO-KSM4 cells; also called humanized PD-L1 antibody
